# Data published in PubChem BioAssay AID1347423 (Functional Genomics Laboratory (NCATS/FGL), 2020).
# Screen size: about 52,000 sequences; about 210 (0.4%) were called active.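 Rule for the calls: active = gene whose silencing raises cell survival under the drug, median off-target-corrected z-score across its silencing RNAs 2 or more; inactive = the rest.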 This is one part of the list.
# Assay: Resistance to Poly (ADP-Ribose) Polymerase inhibitor: Gene Identification via Genome-wide siRNA Screen
# Settings: mouse BRCA2 R2336H ES cells, olaparib, CellTiter-Glo viability; active compounds read high
# Procedure, shortened: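 Genome-wide siRNA screen (3 siRNAs/gene, 20 nM) in mouse ES cells carrying hypomorphic BRCA2 R2336H; olaparib 500 nM added 48 h post-transfection, CellTiter-Glo viability 72 h later. Normalized to plate-median negative control; MAD z-scores, gene median, seed-adjusted.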
row,Sequence,z-score
1,GGUCCCUGUCAAGACCAAATT against Prap1,inactive: 0.589
2,GGCCUUGUAUUACCAUCGATT against Ppp1r9b,inactive: 0.523
3,GGAAUCCUCUUCAGACAAATT against Hivep1,inactive: 0.392
4,CCUGACAGACCGACAAGUGTT against Hoxc11,inactive: -0.816
5,GGGUGUGGCUGACUUUGAUTT against Otof,inactive: -0.723
6,GAUGCAAGAUGACAAGACATT against Rgs6,inactive: 0.614
7,AAGCCCAUAUACUGAAGGUTT against Klk22,inactive: -1.3
8,CGAGGAGUUGGAUUUCAGGTT against Dnmbp,inactive: 1.28
9,GCCUUCCACUACCUUACGUTT against Kcnk3,inactive: 2.17
10,CCCUAACACUGCUACCACGTT against Zfp36l3,inactive: -0.934
11,GCAAGGAGGUCCAACUAAGTT against Fzd8,inactive: -0.568
12,GGCCAAGAACUCCAAGCAUTT against C130058G22Rik,inactive: -0.283
13,CCAUUUGUCUAUGAAUGUGTT against Tm6sf1,inactive: -1.17
14,GGCAUUUGACCCAGAAGACTT against 1110049B09Rik,inactive: 1.2
15,GCACCACUGCCUAUAUAAGTT against Acad8,inactive: -0.0132
16,GGGUCUAAAGAUAUCUGUUTT against Rbm12,inactive: -1.38
17,CGAGAAAGCAUAUAUAAUGTT against C130032J12Rik,inactive: -0.613
18,CCUUAUUGACAGACGAGAGTT against 1110003E08Rik,inactive: 1.31
19,CGCUCCAUUGCUCAGUAUUTT against Vtn,inactive: -0.371
20,GGAAAAUUGAGAUUUCUGCTT against 1110003E01Rik,inactive: 1.52
21,GGCUUUACAGAUGUUAAAUTT against Ak3l,inactive: 0.84
22,CCAAACUAUACUGACAGGUTT against Ppp4r2,inactive: -1.52
23,GGAAAUGAUAUUUGCCUGATT against 1110012L19Rik,inactive: -1.05
24,CCAAGUCACGCACCAAAAATT against Zfp64,inactive: -3.37
25,GGCUUCAUCAAGGUUCAGCTT against Rassf1,inactive: 0.915
26,GGGAAGCUUUUCUUAUCAGTT against V1rb6,inactive: 0.64

row,Sequence,z-score
1,GGCCCAAACACGUGUAAAATT against Jarid1b,inactive: 1.71
2,GCCUGGUGGAAUAAGAAUUTT against BC005682,inactive: 0.0532
3,GGCAAUUACCCACCCUGUUTT against 2210010L05Rik,inactive: -0.701
4,CGUCCUGUCGCUGAUUAAATT against Tcl1,inactive: -0.297
5,GGAAUUCAGCUUUGUGCAATT against Asl,inactive: 0.319
6,GCCUGUCUGCCUUUGCUUCTT against Hist1h4i,inactive: -0.715
7,GGAAAACAUUAAGAGUACATT against Kdelr3,inactive: 0.126
8,GGUAGCUAUUAUCAACAACTT against Prss21,inactive: 1.57
9,GGAUAAUGUGAUAACACUCTT against BC025575,inactive: -0.262
10,GUAUGCCCACAUUCCAGACTT against Npff,inactive: -0.0083
11,GGAGUUCUUGGAGCAUCAGTT against Zfp526,inactive: -1.02
12,GGAGAUUCAGAAUUACUGATT against Ccm1,inactive: -0.31
13,CCUCCUGUUUUUUUCUGUGTT against Olfr96,inactive: -0.29
14,CAAAGCAUGUAACAUCCAATT against Cfhrb_4/2,inactive: -0.885
15,GGAGAUCCAAUGAACCUACTT against 4932414J04,inactive: 0.41
16,GCCUUUAUUAAGGUUGAAATT against Vcl,inactive: 0.498
17,GGUUGACUGAAUGAUGGAATT against Tcl1b3,inactive: 0.81
18,GCCUGUGUGAUUGCUUCAGTT against Plac8,inactive: -2.47
19,GGGACCAAAGGAAACUUCATT against Eif2s3y,inactive: -2.97
20,CCAACCUAAACCAUGUACATT against BC030476,inactive: 0.0751
21,GGUUCAGCUGACGUAAAAATT against LOC434439,inactive: 0.3
22,GCUAUCGAUUGUUACACCGTT against Adrb2,inactive: 0.862
23,GGCAAAUCAUUGAUCAGAATT against Mtrf1,inactive: -1.16
24,GGACAACUAUUUUGUGAGATT against Kcnj9,inactive: -0.186
25,GGUUAUCGGUUGUACAUAUTT against Chd3,inactive: 1.71
26,GGGAAAAAAAAGCUCUUAATT against Usp43,inactive: 0.284

row,Sequence,z-score
1,CCUGGUUAUAACUCUAAAGTT against Rad54l,inactive: -0.821
2,GGAUCCUAAAACUGAGGAATT against 4632407F12Rik,inactive: -2.61
3,CCUACUAAACUCAGUCUUUTT against Kap,inactive: -0.469
4,GGAAAACACCGCAUAUAAUTT against Ss18l1,inactive: 1.33
5,GGUGCUGUUGGUAUAUUAUTT against Ssr2,inactive: -0.305
6,GGCAAUGAGUUCUGGAGUGTT against Capn8,inactive: -0.268
7,CGACAUAGCUUCUGUACUGTT against 1700026L06Rik,inactive: 0.57
8,GCAACGACUCAACCAAUUCTT against 3110043L15Rik,inactive: -0.83
9,GGGAAAGCAGAUCCACAACTT against Adh1,inactive: -0.639
10,GGAAUUUGCCAAAGACCUGTT against Phf13,inactive: 0.943
11,GGAACACAAGCAACAACCATT against Nut,inactive: 1.7
12,GGAAGCUGAACUCCUGAAATT against Stmn4,inactive: -2.97
13,GGUGGAAUAUUUCAUGGACTT against Csnk2a1,inactive: 0.627
14,GGAGAGGAAGCCUAUGAACTT against Zfp180,inactive: -0.305
15,GUUCAUUCUUGAAGGCCUGTT against Olfr1039,inactive: 0.546
16,UUGACUCACCUUCCGAGGUTT against Sprrl3,inactive: -0.238
17,GGAAGUAAAAACAUACCUUTT against 2510006C20Rik,inactive: 0.933
18,GGAACAGAUACCUUUCUAUTT against 2310011G06Rik,inactive: -1.19
19,GGCUGUUUUUACACUUCGCTT against Olfr1395,inactive: 0.386
20,GGUGCCCACCAAUCAACAUTT against Slc9a3r1,inactive: -0.415
21,GGUACCUAUUGAGAUCAAGTT against Pte1,inactive: -0.452
22,GGAAAGUCCUUCCUUUUGGTT against Zfp179,inactive: -0.755
23,GGGUCAUAAAGGAUUUCAUTT against Ppih,inactive: -1.79
24,GCUCAUUGCCAAGAUGACATT against Tcea3,inactive: 0.923
25,CGGACUCUGUGUUCUUAGATT against Alg3,inactive: 0.263
26,GCUCUAUCACUCGUUGAAGTT against Trim27,inactive: -0.234

row,Sequence,z-score
1,CCUCGAAAUACGAAGGCAATT against X83328,inactive: -1.13
2,GCCAACCAAAACCUAAGCATT against Gja7,inactive: 2.59
3,GGAGAUGCCAGAGGUCAAATT against Gzmk,inactive: -0.932
4,GGCAGAGAAAAGGACCUUUTT against 2400002F11Rik,inactive: -1.69
5,GGAGCUUCAGCAUGAAAACTT against Ulk2,inactive: -0.337
6,GCAGAGAUCCCUUCUACAATT against Rnf32,inactive: -0.879
7,CGAUAGCGAAUUUACAGUUTT against Prdx6,inactive: -0.129
8,GGAAACCUGAUGAUCUUUUTT against Olfr421,inactive: -0.43
9,GGCCUGUUUUGAAGUAGAATT against B630019K06Rik,inactive: -1.48
10,GGAAACCAAUAGGAAGUAUTT against Ubqln1,inactive: -1.28
11,GGAGAGCUAGCCUUAAUAATT against Bspry,inactive: 0.758
12,GCAUGGUUUAAUGGCUCGGTT against A930016P21Rik,inactive: 1.29
13,GCUCACAAAGCAAAGACAATT against 3110009E18Rik,inactive: -0.441
14,GGGACUUACAAGCAGAUUCTT against Casp9,inactive: 0.166
15,GGUCCAGAAGAAUUAUGAATT against Magmas,inactive: -0.776
16,GGAGUUCCACUUUCCAGUUTT against D2Bwg0891e,inactive: -0.665
17,GCAGAAAUCUGCCCAGCAGTT against 2410005K17Rik,inactive: -0.695
18,CGGAUCUGAGAUAAAGACGTT against 9330196J05Rik,inactive: 1.49
19,GGGCUACUGAGAAAAUUACTT against BC006909,inactive: 2.6
20,GGAAGGAAGAUGAAAGCCATT against Hspb3,inactive: -0.395
21,GGUAUCAGUGAGUGGUACGTT against 5730449L18Rik,inactive: 1.63
22,GGUGAUAACUCCCUAGUAGTT against Rai12,inactive: -1.43
23,GCUCUGUUCACCUACCCGATT against D10Ertd641e,inactive: 0.136
24,GAGGUUCAGUUUUGGCUGGTT against Olfr558,inactive: 0.309
25,GGAAGACAACUGUUGUGGCTT against Nsddr,inactive: 0.0579
26,GCUAAAAACAGCUAAAGAATT against Adam4,inactive: -0.0849

# Some of the entries so far, tab-delimited:
row	Sequence	z-score
3	GGAGAUGCCAGAGGUCAAATT against Gzmk	inactive: -0.932
4	GGCAGAGAAAAGGACCUUUTT against 2400002F11Rik	inactive: -1.69
5	GGAGCUUCAGCAUGAAAACTT against Ulk2	inactive: -0.337
7	CGAUAGCGAAUUUACAGUUTT against Prdx6	inactive: -0.129
